Experimental data from US10329331B2, “Polypeptides” (priority 2010, dated 2019).
Read-outs that look alike come from different tables or passages of the source. At least one peptide structure holds a part that was inferred or is arguable (an end, a ring closure or a residue). Where no end group is shown, it is not given here. The star is where a group is joined. X1 = O=C(O)CN1CCN(CC(=O)O)CCN(CC(=O)NCCN2C(=O)CC(*)C2=O)CCN(CC(=O)O)CC1

Chains of the proteins cited; added tags and fusions are not shown. Residues count along the entry.
UniProt A2V9Z4, 25-608: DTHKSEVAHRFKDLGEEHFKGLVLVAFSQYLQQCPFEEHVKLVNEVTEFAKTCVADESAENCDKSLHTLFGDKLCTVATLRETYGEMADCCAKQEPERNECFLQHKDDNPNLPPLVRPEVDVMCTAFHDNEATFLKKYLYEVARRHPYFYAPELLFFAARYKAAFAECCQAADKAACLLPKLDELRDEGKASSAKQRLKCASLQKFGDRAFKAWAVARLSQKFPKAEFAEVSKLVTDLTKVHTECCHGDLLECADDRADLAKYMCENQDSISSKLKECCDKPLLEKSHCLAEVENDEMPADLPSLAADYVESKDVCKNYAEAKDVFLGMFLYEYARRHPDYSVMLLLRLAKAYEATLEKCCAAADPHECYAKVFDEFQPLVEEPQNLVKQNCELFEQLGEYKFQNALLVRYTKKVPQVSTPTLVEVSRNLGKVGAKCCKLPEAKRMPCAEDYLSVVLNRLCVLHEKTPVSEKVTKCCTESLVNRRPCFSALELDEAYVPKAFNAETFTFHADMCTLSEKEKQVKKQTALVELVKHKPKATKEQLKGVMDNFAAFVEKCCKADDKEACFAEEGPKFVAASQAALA
UniProt P02770, 25-608: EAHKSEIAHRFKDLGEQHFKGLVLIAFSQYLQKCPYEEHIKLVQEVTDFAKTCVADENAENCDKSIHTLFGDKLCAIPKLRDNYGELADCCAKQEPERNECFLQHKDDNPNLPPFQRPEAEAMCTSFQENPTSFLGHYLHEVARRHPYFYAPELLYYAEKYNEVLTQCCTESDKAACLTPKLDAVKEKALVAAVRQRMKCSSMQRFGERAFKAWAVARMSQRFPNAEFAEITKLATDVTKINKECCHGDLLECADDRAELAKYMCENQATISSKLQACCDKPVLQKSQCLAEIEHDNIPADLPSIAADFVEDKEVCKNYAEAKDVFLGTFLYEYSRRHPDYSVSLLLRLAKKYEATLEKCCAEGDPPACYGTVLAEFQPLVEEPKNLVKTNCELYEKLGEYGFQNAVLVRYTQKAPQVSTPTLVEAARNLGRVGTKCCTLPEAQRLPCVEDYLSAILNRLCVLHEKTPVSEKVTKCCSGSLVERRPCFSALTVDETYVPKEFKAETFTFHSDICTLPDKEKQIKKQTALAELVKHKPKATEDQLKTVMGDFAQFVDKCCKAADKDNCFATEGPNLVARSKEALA
UniProt P49822, 25-608: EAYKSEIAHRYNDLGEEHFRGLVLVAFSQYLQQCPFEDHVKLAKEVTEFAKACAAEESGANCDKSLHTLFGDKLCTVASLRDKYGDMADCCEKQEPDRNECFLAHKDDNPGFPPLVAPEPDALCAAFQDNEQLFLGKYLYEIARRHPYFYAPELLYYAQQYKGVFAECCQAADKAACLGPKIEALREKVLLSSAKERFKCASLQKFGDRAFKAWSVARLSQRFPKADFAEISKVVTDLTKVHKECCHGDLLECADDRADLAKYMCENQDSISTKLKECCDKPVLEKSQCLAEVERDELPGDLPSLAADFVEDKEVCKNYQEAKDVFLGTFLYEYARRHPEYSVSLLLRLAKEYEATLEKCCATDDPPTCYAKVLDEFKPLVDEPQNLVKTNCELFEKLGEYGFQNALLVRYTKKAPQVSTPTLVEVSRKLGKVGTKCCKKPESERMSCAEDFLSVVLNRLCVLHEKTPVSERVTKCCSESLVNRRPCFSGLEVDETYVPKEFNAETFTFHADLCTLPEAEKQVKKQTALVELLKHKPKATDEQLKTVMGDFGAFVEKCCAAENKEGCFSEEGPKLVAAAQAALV
UniProt P07724, 25-608: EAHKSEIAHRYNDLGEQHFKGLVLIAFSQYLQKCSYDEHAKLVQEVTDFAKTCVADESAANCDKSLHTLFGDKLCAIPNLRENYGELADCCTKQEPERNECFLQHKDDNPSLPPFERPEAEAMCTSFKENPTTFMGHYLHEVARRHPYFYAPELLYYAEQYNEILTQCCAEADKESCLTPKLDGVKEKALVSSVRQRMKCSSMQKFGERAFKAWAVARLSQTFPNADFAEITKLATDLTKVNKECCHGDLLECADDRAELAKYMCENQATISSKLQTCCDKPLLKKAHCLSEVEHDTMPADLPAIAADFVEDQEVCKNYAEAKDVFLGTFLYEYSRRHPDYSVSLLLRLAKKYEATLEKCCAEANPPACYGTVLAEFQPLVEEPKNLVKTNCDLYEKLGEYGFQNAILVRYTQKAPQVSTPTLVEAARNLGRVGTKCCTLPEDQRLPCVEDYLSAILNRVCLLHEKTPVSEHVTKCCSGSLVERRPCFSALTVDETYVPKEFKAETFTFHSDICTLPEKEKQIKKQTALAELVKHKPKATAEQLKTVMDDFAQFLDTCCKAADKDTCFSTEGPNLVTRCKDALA

Legend:
[1] = assay type: physicochemical
Description: Amicon Ultra centrifugal filter units, cut off of 3 kDa, (Millipore, Cat. No. UFC800324) were prerinsed with 2 ml NaPi buffer by centrifugation at 4000 g for 20 min in a swinging bucket rotor centrifuge (Multifuge, Heraeus). […] A 25 μl sample was removed (UF sample 1) for further analysis and the rest of the sample was transferred to a second centrifugal filter unit. The centrifugation and sample removal were repeated three times with spinning times of 8, 9 and 20 min respectively (UF sample 2, 3 and 4 respectively). Absorbance readings were performed using a NANODROP ND-1000 Spectrophotometer and by diluting UF samples 1-4 in NaPi buffer 2, 4, 6 and 12 times respectively. The concentrations were calculated using the extinction coefficient 1 Abs 280=1.955 mg/ml. Gel filtration was performed on a 1100 HPLC system (Agilent Technologies) using a Superdex75 10/300 GL column (GE Healthcare) which had been equilibrated in NaPi buffer. 10 μl of each UF sample were applied to the column; NaPi buffer was used as running buffer and the flow rate was 0.5 ml/min. A chromatogram of the molecular weight standard ovalbumin (GE Healthcare), injected at a concentration of 5 mg/ml was collected as well. Concentrations were determined by integrating the area under the curve.

[2] = target: T1, albumin from cynomolgus monkey (CSA) (Macaca fascicularis, UniProt A2V9Z4); test: Biacore affinity to albumin from different species: cynomolgus monkey; assay type: binding; conditions: KD over all species in the range from below picomolar to below nanomolar
T1 construct: CSA (purified in-house from cynomolgus serum); from tissue; host or cells: cynomolgus serum

albumin from rat (RSA) = target: T2, albumin from rat (RSA) (Rattus norvegicus, UniProt P02770); test: Biacore affinity to albumin from different species: rat; assay type: binding; conditions: KD over all species in the range from below picomolar to below nanomolar
T2 construct: purchased Sigma-Aldrich A6272

albumin from human (HSA) = target: T3, albumin from human (HSA) (Homo sapiens, UniProt P02768); test: Biacore affinity to albumin from different species: human; assay type: binding
T3 construct: purchased Novozymes ALBUCULT

albumin from dog (DSA) = target: T4, albumin from dog (DSA) (Canis lupus familiaris, UniProt P49822); test: Biacore affinity to albumin from different species: dog; assay type: binding; conditions: KD over all species in the range from below picomolar to below nanomolar
T4 construct: purchased MP Biomedicals 55925

[3] = CD analysis of heat stability (structural reversibility); assay type: physicochemical; conditions: for alpha helix content after pretreatment: 12 minutes at 90° C.
[4] = Melting temperature (Tm) by circular dichroism analysis; assay type: physicochemical; conditions: PBS pH 4.0, 0.5 mg/ml
albumin from mouse (MSA) = target: T5, albumin from mouse (MSA) (Mus musculus, UniProt P07724); test: Biacore affinity to albumin from different species: mouse; assay type: binding; conditions: KD over all species in the range from below picomolar to below nanomolar
T5 construct: purchased Sigma-Aldrich A3559

HSA = target: T6, HSA (Homo sapiens, UniProt P02768); test: Biosensor analysis of heat stability (90° C., low pH), binding to HSA; assay type: physicochemical; conditions: 10 min at 90° C., pH 4.0; 0.8 nM and 4 nM injected
T6 construct: purchased Novozymes ALBUCULT

[5] = target: T7, human serum albumin (HSA) (Homo sapiens, UniProt P02768); test: Biacore affinity determination to human serum albumin; assay type: binding; conditions: as described in Example 2, data not shown
T7 construct: purchased Novozymes ALBUCULT

Row | Molecule | Concentration determined by Gel filtration ([1]; sample UF2, after consecutive ultrafiltration) | Concentration determined by Gel filtration ([1]; sample UF3, after consecutive ultrafiltration) | Concentration determined by Gel filtration ([1]; sample UF4, after consecutive ultrafiltration) | affinity to albumin from cynomolgus monkey [2] | affinity to albumin from rat (albumin from rat (RSA)) | affinity to human serum albumin (albumin from human (HSA); KD over all species in the range from below picomolar to below nanomolar) | ranking of the relative affinities for albumin of the different species (albumin from human (HSA); across HSA, CSA, RSA, MSA and DSA) | affinity to albumin from dog (albumin from dog (DSA)) | alpha helix content after pretreatment ([3]; pH 4.0) | alpha helix content after pretreatment ([3]; pH 7.2) | effect of short time heating on the structure (CD spectra before and after) ([3]; temperature gradient 20° C. to 90° C., pH 4 or pH 7.2 buffer) | Tm [4] | affinity to albumin from mouse (albumin from mouse (MSA)) | binding capacity to HSA after heat treatment (HSA) | binding activity of the DOTA-conjugated peptide [5]
1 | CC[C@H](C)[C@H](NC(=O)[C@H](C)NC(=O)[C@H](CC(=O)O)NC(=O)[C@H](CCCCN)NC(=O)[C@H](CC(C)C)NC(=O)[C@H](C)NC(=O)[C@H](CCC(=O)O)NC(=O)[C@@H](NC(=O)CNC(=O)[C@H](CCC(=O)O)NC(=O)[C@@H](NC(=O)[C@@H](NC(=O)[C@H](CCCCN)NC(=O)[C@H](C)NC(=O)[C@H](CCCCN)NC(=O)[C@H](CC(=O)O)NC(=O)[C@@H](NC(=O)[C@H](CC(C)C)NC(=O)[C@H](CCCNC(=N)N)NC(=O)[C@H](CCCCN)NC(=O)[C@H](Cc1ccc(O)cc1)NC(=O)[C@H](Cc1ccccc1)NC(=O)[C@H](CC(=O)O)NC(=O)[C@H](CO)NC(=O)[C@@H](NC(=O)CNC(=O)[C@H](Cc1ccc(O)cc1)NC(=O)[C@H](CO)NC(=O)[C@H](CC(=O)O)NC(=O)[C@H](CC(C)C)NC(=O)[C@H](CCC(=O)O)NC(=O)[C@H](C)NC(=O)[C@H](CC(N)=O)NC(=O)[C@H](C)NC(=O)[C@H](C)NC(=O)[C@H](CCC(=O)O)NC(=O)[C@H](CCCCN)NC(=O)[C@H](C)NC(=O)[C@H](CCC(=O)O)NC(=O)[C@H](C)NC(=O)[C@H](CC(C)C)NC(=O)[C@H](CO)NC(=O)CN)C(C)C)[C@@H](C)CC)[C@@H](C)O)C(C)C)C(C)C)C(=O)N[C@@H](CC(C)C)C(=O)N[C@@H](C)C(=O)N[C@@H](C)C(=O)N[C@@H](CC(C)C)C(=O)N1CCC[C@H]1C(=O)O [PEP07986] | 12400 µg/mL | 22100 µg/mL | 42600 µg/mL | high affinity | – | – | – | – | – | – | – | – | – | – | –
2 | CC[C@H](C)[C@H](NC(=O)[C@H](C)NC(=O)[C@H](CC(=O)O)NC(=O)[C@H](CCCCN)NC(=O)[C@H](CC(C)C)NC(=O)[C@H](C)NC(=O)[C@H](CCC(=O)O)NC(=O)[C@@H](NC(=O)CNC(=O)[C@H](CCC(=O)O)NC(=O)[C@@H](NC(=O)[C@@H](NC(=O)[C@H](CCCCN)NC(=O)[C@H](C)NC(=O)[C@H](CCCCN)NC(=O)[C@H](CC(=O)O)NC(=O)[C@@H](NC(=O)[C@H](CC(C)C)NC(=O)[C@H](CCCNC(=N)N)NC(=O)[C@H](CCCCN)NC(=O)[C@H](Cc1ccc(O)cc1)NC(=O)[C@H](Cc1ccccc1)NC(=O)[C@H](CC(=O)O)NC(=O)[C@H](CO)NC(=O)[C@@H](NC(=O)CNC(=O)[C@H](Cc1ccc(O)cc1)NC(=O)[C@H](CSC1CC(=O)N(CCNC(=O)CN2CCN(CC(=O)O)CCN(CC(=O)O)CCN(CC(=O)O)CC2)C1=O)NC(=O)[C@H](CC(=O)O)NC(=O)[C@H](CC(C)C)NC(=O)[C@H](CCC(=O)O)NC(=O)[C@H](C)NC(=O)[C@H](CC(N)=O)NC(=O)[C@H](C)NC(=O)[C@H](C)NC(=O)[C@H](CCC(=O)O)NC(=O)[C@H](CCCCN)NC(=O)[C@H](C)NC(=O)[C@H](CCC(=O)O)NC(=O)[C@H](C)NC(=O)[C@H](CC(C)C)NC(=O)[C@H](CO)NC(=O)CN)C(C)C)[C@@H](C)CC)[C@@H](C)O)C(C)C)C(C)C)C(=O)N[C@@H](CC(C)C)C(=O)N[C@@H](C)C(=O)N[C@@H](C)C(=O)N[C@@H](CC(C)C)C(=O)N1CCC[C@H]1C(=O)NCC(=O)O (single isomer, unassigned) [PEP08296] | – | – | – | high affinity | high affinity | high affinity | RSA≥HSA/CSA>MSA/DSA | high affinity | slightly reduced alpha helix content | no change in alpha helix content | no effect on the structure | 62 °C | high affinity | slightly reduced | –
3 | ALASAKEAANAELDC(X1)YGVSDFYKRLIDKAKTVEGVEALKDAILAALP-NH2 [PEP07975] | – | – | – | – | – | – | – | – | – | – | – | – | – | – | confirmed
